In the supplement of paper PMC7238544:
Structures can show the parent of a compound that is named as a salt. ± gives the standard deviation of the averaged measurements. This is one part of the list. The data scatter; read single values as rough.

system: hAMSC donor 2; experiment: transfection efficiency (EGFP+ cells / Hoechst count) fold change vs vehicle control (ratio); hAMSC are human adipose-derived mesenchymal stem cells given an EGFP-luciferase plasmid by lipofection; higher = enhanced transfection; settings: priming compound concentration 1.7 µM

SMILES | transfection efficiency
Clc1ccc(CO/N=C(\Cn2ccnc2)c2ccc(Cl)cc2Cl)c(Cl)c1 [Oxiconazole nitrate] | 0.65 ± 0.13
CN1CCN(CCCN2c3ccccc3Sc3ccc(Cl)cc32)CC1 [Prochlorperazine maleate] | 1.02 ± 0.067
C=C1/C(=C\C=C2/CCC[C@]3(C)[C@@H]([C@H](C)CCCC(C)(C)O)CC[C@@H]23)C[C@@H](O)C[C@@H]1O [Calcitriol] | 1.53 ± 0.23
C#C[C@]1(O)CC[C@H]2[C@@H]3CCc4cc(OC)ccc4[C@H]3CC[C@@]21C [Mestranol] | 0.942 ± 0.15
Nc1ccn([C@@H]2O[C@H](CO)[C@@H](O)[C@@H]2O)c(=O)n1 [Cytarabine] | 0.969 ± 0.15
COc1cccc2c1C(=O)c1c(O)c3c(c(O)c1C2=O)C[C@@](O)(C(C)=O)C[C@@H]3O[C@H]1C[C@H](N)[C@H](O)[C@H](C)O1 [Daunorubicin hydrochloride] | 3.834 ± 0.037
CC/C(=C(\c1ccccc1)c1ccc(OCCN(C)C)cc1)c1ccccc1 [Tamoxifen] | 0.822 ± 0.11
COc1ccc(CN2CCN(C(c3ccc(F)cc3)c3ccc(F)cc3)CC2)c(OC)c1OC [Lomerizine dihydrochloride] | 1.01 ± 0.18
CC(C)NCC(O)COc1cccc2ccccc12 (configuration not stated) [Propranolol hydrochloride] | 0.868 ± 0.14
CN[C@@H]1[C@H](O)[C@H](NC)[C@H]2O[C@@]3(O)C(=O)C[C@@H](C)O[C@H]3O[C@@H]2[C@H]1O [Spectinomycin] | 0.887 ± 0.057
C=C[C@H]1CN2CC[C@H]1C[C@@H]2[C@@H](O)c1ccnc2ccc(OC)cc12 [Quinidine] | 1.01 ± 0.013
N[C@@H]1CONC1=O [D-Cycloserine] | 0.916 ± 0.11
CC(C)NCC(O)c1ccc(O)c(O)c1 (configuration not stated) [Isoproterenol hydrochloride] | 0.843 ± 0.058
NC(=O)c1cccnc1 [Nicotinamide] | 0.846 ± 0.064
CC(=O)Oc1ccccc1C(=O)Nc1ncc([N+](=O)[O-])s1 [Nitazoxanide] | 0.753 ± 0.1
Cc1nc2ccccn2c(=O)c1CCN1CCC(C(=O)c2ccc(F)cc2)CC1 [Pirenperone] | 1.18 ± 0.038
CC(C)(C(=O)O)c1ccc(C(O)CCCN2CCC(C(O)(c3ccccc3)c3ccccc3)CC2)cc1 (configuration not stated) [Fexofenadine hydrochloride] | 0.984 ± 0.049
CC1CNc2c(cccc2S(=O)(=O)N[C@@H](CCCNC(=N)N)C(=O)N2CC[C@@H](C)C[C@@H]2C(=O)O)C1 (some centres not stated) [Argatroban] | 0.909 ± 0.054
O=c1[nH]cnc2c1ncn2[C@H]1CC[C@@H](CO)O1 [Didanosine] | 1.17 ± 0.12
CC(C)NCC(O)COc1ccc(COCCOC(C)C)cc1 (configuration not stated) [Bisoprolol fumarate] | 1.02 ± 0.15
CCN1CCN(c2cc3c(cc2F)c(=O)c(C(=O)O)cn3C2CC2)CC1 [Enrofloxacin] | 1.04 ± 0.24
O=C1N(c2ccccc2)c2ccccc2C1(Cc1ccncc1)Cc1ccncc1 [Linopirdine dihydrochloride] | 0.966 ± 0.062
CN(C)CCC=C1c2ccccc2COc2ccccc21 [Doxepin hydrochloride] | 0.782 ± 0.044
C[C@@H]1CN(CCCn2c3ccccc3c3ccccc32)C[C@H](C)N1 [Rimcazole dihydrochloride] | 0.894 ± 0.065
Nc1nc2ccc(OC(F)(F)F)cc2s1 [Riluzole hydrochloride] | 1.06 ± 0.34
NC(N)=Nc1nc(CSCC/C(N)=N/S(N)(=O)=O)cs1 [Famotidine] | 1.22 ± 0.062
CN(C)CCN(Cc1ccccc1)c1ccccn1 [Tripelennamine hydrochloride] | 0.893 ± 0.049

In a second layout: results already given.

| SMILES | transfection efficiency |
| --- | --- |
| O=C1N(c2ccccc2)c2ccccc2C1(Cc1ccncc1)Cc1ccncc1 [Linopirdine dihydrochloride] | 0.966 ± 0.062 |
| CN(C)CCC=C1c2ccccc2COc2ccccc21 [Doxepin hydrochloride] | 0.782 ± 0.044 |
